# Among all 200,000 compounds or so, about 25 (0.01%) were called active. The inconclusive results got no clear call from the source; some entries with a clear call stand among them for comparison. Calls come from the whole dose curve; as a rule, active = well fitted inhibition curve with a large enough effect in the signal ratio, with a control signal flat (not every such curve was filed as active); inconclusive = small, poorly fitted or top-dose-only effect, or effect the other way, or a change in a side signal; inactive = flat fitted curve, though single readings scatter; the % refers to the signal ratio. Potencies beside an inconclusive call are fits to weak or partial responses and may not hold up.
# Assay: qHTS Assay for Modulators of Lamin A Splicing
# Conditions: HeLa LMNA splicing GFP/RFP minigene ratio, 48 h; ratio change, negative = inhibition: at 46.1 µM (top of the series) unless noted
# In short: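 Read-out is the ratio of GFP to DsRed2 object intensity, acquired by 488 nm laser-scanning cytometry on HeLa lamin A-EGFP minigene reporter cells. Compound incubation 48 hrs at 37 °C in Opti-MEM with 2% FBS; DMSO 0.5% final.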
# % is set by controls: 0 for no effect and ±100 for the full control effect; potency is the fitted concentration of half-maximal effect.
Structure (SMILES),"ratio change, negative = inhibition",Potency
O=C(NCc1ccco1)C1CCCN(S(=O)(=O)c2ccc(Br)cc2)C1 (stereo unspecified),inactive: 4.98% [at 46 µM],
NN/C(=C\[N+](=O)[O-])Nc1ccc(Cl)cc1,,"inconclusive: 28.2 µM [inhibitor, single point]"
CNC(=O)CN1C(=O)C2C3C=CC(C3)C2C1=O (stereo unspecified),inactive: -14.1%,
O=C(/C(=C/c1cccc(Cl)c1)c1nc2ccccc2[nH]1)c1ccccc1,,"inconclusive: 20 µM [inhibitor, partial curve, poor fit]"
CC(C)C(NC(=O)c1ccccc1F)C(=O)OCC(=O)c1ccc(F)cc1 (stereo unspecified),inconclusive: 3.6% [at 46 µM],
Cc1ccc(S(=O)(=O)NC2c3cccc4cccc(c34)C2Sc2n[nH]c(N)n2)cc1 (stereo unspecified),inactive: -0.248%,
C/C(=N\NC(=O)CN(c1ccccc1)S(C)(=O)=O)c1ccccc1O,,"inconclusive: 14.1 µM [inhibitor, single point]"
O=C(CCC1CCCC1)Nc1ccc(C(=O)NCc2cccnc2)cc1,inconclusive: 34.1% [at 46 µM],
CCCOC(=O)C1=C(C)N(C)C(=O)NC1c1cc2c(cc1[N+](=O)[O-])OCO2 (stereo unspecified),inactive: -10.9% [at 9.22 µM],
CCC(=O)Nc1ccc(C(=O)N/N=C/c2c(C)[nH]c3ccccc23)cc1,inconclusive: 22.1% [at 46 µM],
CCOc1nc(C)ccc1-c1noc(-c2ccccn2)n1,inconclusive: 7.29%,
COC(=O)c1sccc1NC(=O)CSc1ccccc1NS(=O)(=O)c1ccc(F)cc1,inactive: -15.2%,
CC1CCCCN1C(=O)CSc1nc(C2CC2)nc2c1cnn2-c1ccccc1 (stereo unspecified),inconclusive: 6.48%,
O=C(NCCc1ccccn1)c1ccc(NS(=O)(=O)c2ccc(F)cc2)cc1,inconclusive: 15.4% [at 9.22 µM],
Cc1ccccc1N=Cc1cc2c(cc1O)OC(N)=C(C#N)C2c1ccccc1 (stereo unspecified),inconclusive: -47.4%,
COc1ccccc1N(CC(=O)Nc1cccnc1)S(C)(=O)=O,inactive: 10.4%,
c1ccc(-n2ncc3c(NCCN4CCCCC4)ncnc32)cc1,inactive: 10.7%,
O=C(NC1CCCC1)c1csc2c1CCCC2,inactive: 18.3%,
CCn1cc(/C=N\NC(=O)c2ccc(Cl)cc2)cn1,inactive: 7.15%,
CCOc1cccc(=O)c2c(C)n(Cc3ccccc3)c(C)c12,inactive: 18.6% [at 46 µM],
Nc1ncnc2c1ncn2[C@@H]1O[C@H](CO)C[C@@H]1O,inconclusive: -29.5% [at 46 µM],

Structure (SMILES),"ratio change, negative = inhibition",Potency
c1cncc(CN=C2Nc3ccccc3CS2)c1,inconclusive: 4.7% [at 46 µM],
Clc1ccccc1CSC1=NCCN1,,"inconclusive: 20 µM [inhibitor, single point]"
COc1ccc(-n2ccn(CC(=O)Nc3ccc(C)cc3C)c(=O)c2=O)cc1,inactive: -5.35% [at 46 µM],
CCOC(=O)c1c(NC(=O)CN2C(=O)NC3(CCCCCC3)C2=O)sc(C)c1-c1ccc(C)cc1,inconclusive: -2.03%,
Cc1ccc(Nc2nc(Nc3ccc(C)cc3)nc(SC3=NCCS3)n2)cc1,,"inconclusive: 35.5 µM [inhibitor, single point]"
COc1ccccc1-c1noc(CSc2nc(C)cc(=O)[nH]2)n1,inconclusive: -3.24% [at 46 µM],
CN(CCOC(=O)c1cccc(F)c1)Cc1ccccc1,inactive: -6.02%,
Cc1cc(F)ccc1NC(=O)CS(=O)(=O)c1cccc2nsnc12,inconclusive: -2.06% [at 46 µM],
COc1ccc(N2CC(NC(=O)C3CCCC3)CC2=O)cc1OC (stereo unspecified),inactive: -5.48% [at 46 µM],
CSc1ccc(CCNC(=O)c2cc3cc(S(=O)(=O)N4CCCCC4)ccc3n2C)cc1,inconclusive: 11% [at 46 µM],
COc1ccc(CNc2nc(SCc3ccccc3Cl)nc3ccccc23)cc1,,"inconclusive: 35.5 µM [cytotoxic, single point]"
CS(=O)(=O)Nc1nnc(C2CCCC2)s1,inconclusive: 3.36% [at 46 µM],
O=C(CSc1nc(=O)[nH]c2c1CCCC2)NCc1ccc(F)cc1,inconclusive: 12.4% [at 46 µM],
Cc1oc(-c2cc3c(cc2Cl)OCO3)nc1CN1CCCC(C(=O)N2CCOCC2)C1 (stereo unspecified),inconclusive: -15.8% [at 46 µM],
COCCn1c(C)cc(O)c(C(c2ccc(F)cc2)N2CCN(c3ccccc3)CC2)c1=O (stereo unspecified),inactive: -7.23% [at 46 µM],
CSc1nc(N)nc(SCCS(=O)(=O)c2ccc(Cl)cc2)c1C#N,,"inconclusive: 35.5 µM [rising, single point]"
COc1ccccc1OCCN1CSC(=S)N(C)C1,inconclusive: -20.3%,
O=c1c2cccnc2nc2n1CCCCC2,inconclusive: 11.4% [at 46 µM],
CCOC(=O)c1ccc(NC(=S)N(CCN2CCCCCC2)Cc2ccco2)cc1,inconclusive: -25.2% [at 46 µM],
O=C(CSc1nnc(-c2ccccc2)c(-c2ccccc2)n1)Nc1ccc(Br)cn1,inconclusive: -47%,

# Copied from the list.
# `CCCOC(=O)C1=C(C)N(C)C(=O)NC1c1cc2c(cc1[N+](=O)[O-])OCO2` (stereo unspecified) | ratio change, negative = inhibition: inactive: -10.9% [at 9.22 µM]
# `CNC(=O)CN1C(=O)C2C3C=CC(C3)C2C1=O` (stereo unspecified) | ratio change, negative = inhibition: inactive: -14.1%

# From PubChem BioAssay AID1487 (National Center for Advancing Translational Sciences (NCATS), 2009)
